Measurements published in PMC10796436, “Peptidyl nitroalkene inhibitors of main protease rationalized by computational and crystallographic investigations as antivirals against SARS-CoV-2” (Communications Chemistry, 2024).
Like-named read-outs stand apart in the source and are kept apart here. The source gives many values for each of these; only a part stands here.

Target: M^pro (Severe acute respiratory syndrome coronavirus 2, UniProt P0DTD1)
Type: binding

Compound: CC(C)C[C@H](NC(=O)OCc1ccccc1)C(=O)N[C@H](/C=C/[N+](=O)[O-])C[C@@H]1CCNC1=O [FGA147]
- Fraction unfolded (25 mM, 20 °C): 0.01414
- Fraction unfolded (25 mM, 20.5 °C): 0.04278
- Fraction unfolded (25 mM, 21 °C): 0.01683
- Fraction unfolded (25 mM, 32.5 °C): -0.03613
- Fraction unfolded (25 mM, 33 °C): 0.01483
- Fraction unfolded (25 mM, 33.5 °C): 0.05004
- Fraction unfolded (25 mM, 34 °C): 0.01192
- Fraction unfolded (25 mM, 34.5 °C): -0.01503
- Fraction unfolded (25 mM, 35 °C): -0.01349
- Fraction unfolded (25 mM, 35.5 °C): -0.01483
- Fraction unfolded (25 mM, 36 °C): 0.01414
- Fraction unfolded (25 mM, 36.5 °C): -0.01034
- Fraction unfolded (25 mM, 37 °C): 0.01683
- Fraction unfolded (25 mM, 37.5 °C): 0.04278
- Fraction unfolded (25 mM, 38 °C): 0.07148
- Fraction unfolded (25 mM, 38.5 °C): -0.01421
- Fraction unfolded (25 mM, 39 °C): -0.05389
- Fraction unfolded (25 mM, 39.5 °C): -0.01968
- Fraction unfolded (25 mM, 40 °C): 0.09885
- Fraction unfolded (25 mM, 40.5 °C): 0.01751
- Fraction unfolded (25 mM, 41 °C): -0.01678
- Fraction unfolded (25 mM, 41.5 °C): 0.1948
- Fraction unfolded (25 mM, 42 °C): 0.138
- Fraction unfolded (25 mM, 42.5 °C): 0.09827
- Fraction unfolded (25 mM, 43 °C): 0.1578
- Fraction unfolded (25 mM, 43.5 °C): 0.2799
- Fraction unfolded (25 mM, 44 °C): 0.2792
- Fraction unfolded (25 mM, 44.5 °C): 0.4175
- Fraction unfolded (25 mM, 45 °C): 0.2379
- Fraction unfolded (25 mM, 45.5 °C): 0.3457
- Fraction unfolded (25 mM, 46 °C): 0.4723
- Fraction unfolded (25 mM, 46.5 °C): 0.5358
- Fraction unfolded (25 mM, 47 °C): 0.6206
- Fraction unfolded (25 mM, 47.5 °C): 0.6097
- Fraction unfolded (25 mM, 48 °C): 0.6107
- Fraction unfolded (25 mM, 48.5 °C): 0.7639
- Fraction unfolded (25 mM, 49 °C): 0.8307
- Fraction unfolded (25 mM, 49.5 °C): 0.9672
- Fraction unfolded (25 mM, 50 °C): 0.8593
- Fraction unfolded (25 mM, 50.5 °C): 0.8947
- Fraction unfolded (25 mM, 51 °C): 0.8707
- Fraction unfolded (25 mM, 51.5 °C): 0.9572
- Fraction unfolded (25 mM, 52 °C): 0.9094
- Fraction unfolded (25 mM, 52.5 °C): 0.9702
- Fraction unfolded (25 mM, 53 °C): 0.8904
- Fraction unfolded (25 mM, 53.5 °C): 0.9069
- Fraction unfolded (25 mM, 54 °C): 0.9966
- Fraction unfolded (25 mM, 54.5 °C): 0.9681
- Fraction unfolded (25 mM, 55 °C): 1.053
- Fraction unfolded (25 mM, 55.5 °C): 0.9786
- Fraction unfolded (25 mM, 56 °C): 1.017
- Fraction unfolded (25 mM, 56.5 °C): 1.052
- Fraction unfolded (25 mM, 57 °C): 0.9706
- Fraction unfolded (25 mM, 57.5 °C): 1.006
- Fraction unfolded (25 mM, 58 °C): 0.9637
- Fraction unfolded (25 mM, 58.5 °C): 1.043
- Fraction unfolded (25 mM, 59 °C): 0.9975
- Fraction unfolded (25 mM, 59.5 °C): 1.025
- Fraction unfolded (25 mM, 60 °C): 1.003
- Fraction unfolded (25 mM, 60.5 °C): 1.081
- Fraction unfolded (25 mM, 61 °C): 1.0453
- Fraction unfolded (25 mM, 61.5 °C): 0.9925
- Fraction unfolded (25 mM, 62 °C): 1.0196
- Fraction unfolded (25 mM, 62.5 °C): 0.9435
- Fraction unfolded (25 mM, 63 °C): 1.003
- Fraction unfolded (25 mM, 63.5 °C): 0.9848
- Fraction unfolded (25 mM, 64 °C): 1.005
- Fraction unfolded (25 mM, 64.5 °C): 0.9404
- Fraction unfolded (25 mM, 65 °C): 1.075
- Fraction unfolded (25 mM, 65.5 °C): 1.061
- Fraction unfolded (25 mM, 66 °C): 1.164
- Fraction unfolded (100 mM, 20 °C): 0.06732
- Fraction unfolded (100 mM, 20.5 °C): -0.02735
- Fraction unfolded (100 mM, 21 °C): 0.01656
- Fraction unfolded (100 mM, 32.5 °C): 0.01094
- Fraction unfolded (100 mM, 33 °C): 0.02167
- Fraction unfolded (100 mM, 33.5 °C): -0.03337
- Fraction unfolded (100 mM, 34 °C): -0.04925
- Fraction unfolded (100 mM, 34.5 °C): -0.01302
- Fraction unfolded (100 mM, 35 °C): 0.0174
- Fraction unfolded (100 mM, 35.5 °C): 0.07455
- Fraction unfolded (100 mM, 36 °C): -0.07318
- Fraction unfolded (100 mM, 36.5 °C): 0.02179
- Fraction unfolded (100 mM, 37 °C): -0.00134
- Fraction unfolded (100 mM, 37.5 °C): 0.02966
- Fraction unfolded (100 mM, 38 °C): 0.1339
- Fraction unfolded (100 mM, 38.5 °C): 0.1915
- Fraction unfolded (100 mM, 39 °C): 0.2438
- Fraction unfolded (100 mM, 39.5 °C): 0.2709
- Fraction unfolded (100 mM, 40 °C): 0.1422
- Fraction unfolded (100 mM, 40.5 °C): 0.1739
- Fraction unfolded (100 mM, 41 °C): 0.163
- Fraction unfolded (100 mM, 41.5 °C): 0.3283
- Fraction unfolded (100 mM, 42 °C): 0.2639
- Fraction unfolded (100 mM, 42.5 °C): 0.3713
- Fraction unfolded (100 mM, 43 °C): 0.4067
- Fraction unfolded (100 mM, 43.5 °C): 0.4356
- Fraction unfolded (100 mM, 44 °C): 0.4743
- Fraction unfolded (100 mM, 44.5 °C): 0.5054
- Fraction unfolded (100 mM, 45 °C): 0.5092
- Fraction unfolded (100 mM, 45.5 °C): 0.5279
- Fraction unfolded (100 mM, 46 °C): 0.4652
- Fraction unfolded (100 mM, 46.5 °C): 0.6925
- Fraction unfolded (100 mM, 47 °C): 0.5814
- Fraction unfolded (100 mM, 47.5 °C): 0.7855
- Fraction unfolded (100 mM, 48 °C): 0.683
- Fraction unfolded (100 mM, 48.5 °C): 0.722
- Fraction unfolded (100 mM, 49 °C): 0.6909
- Fraction unfolded (100 mM, 49.5 °C): 0.757
- Fraction unfolded (100 mM, 50 °C): 0.8623
- Fraction unfolded (100 mM, 50.5 °C): 0.7537
- Fraction unfolded (100 mM, 51 °C): 0.8327
- Fraction unfolded (100 mM, 51.5 °C): 0.7454
- Fraction unfolded (100 mM, 52 °C): 0.777
- Fraction unfolded (100 mM, 52.5 °C): 0.8218
- Fraction unfolded (100 mM, 53 °C): 0.9065
- Fraction unfolded (100 mM, 53.5 °C): 0.8925
- Fraction unfolded (100 mM, 54 °C): 0.8755
- Fraction unfolded (100 mM, 54.5 °C): 0.9263
- Fraction unfolded (100 mM, 55 °C): 0.8788
- Fraction unfolded (100 mM, 55.5 °C): 0.8013
- Fraction unfolded (100 mM, 56 °C): 0.9614
- Fraction unfolded (100 mM, 56.5 °C): 0.8401
- Fraction unfolded (100 mM, 57 °C): 0.9037
- Fraction unfolded (100 mM, 57.5 °C): 0.9507
- Fraction unfolded (100 mM, 58 °C): 0.9987
- Fraction unfolded (100 mM, 58.5 °C): 0.9049
- Fraction unfolded (100 mM, 59 °C): 1.003
- Fraction unfolded (100 mM, 59.5 °C): 0.9407
- Fraction unfolded (100 mM, 60 °C): 0.94
- Fraction unfolded (100 mM, 60.5 °C): 0.9111
- Fraction unfolded (100 mM, 61 °C): 0.8667
- Fraction unfolded (100 mM, 61.5 °C): 1.014
- Fraction unfolded (100 mM, 62 °C): 0.8397
- Fraction unfolded (100 mM, 62.5 °C): 0.9585
- Fraction unfolded (100 mM, 63 °C): 0.9981
- Fraction unfolded (100 mM, 63.5 °C): 1.02
- Fraction unfolded (100 mM, 64 °C): 0.9117
- Fraction unfolded (100 mM, 64.5 °C): 0.9013
- Fraction unfolded (100 mM, 65 °C): 1.068
- Fraction unfolded (100 mM, 65.5 °C): 0.9619
- Fraction unfolded (100 mM, 66 °C): 0.8741
